Among the data in publication PMC3897609, “Heparanase Interacts with Resistin and Augments Its Activity” (PLoS ONE, 2014) are binding values, retold here.

Amino acid sequences for entries named in this document (tags omitted). Residues count along the entry.
UniProt Q9HD89, residues 19-108: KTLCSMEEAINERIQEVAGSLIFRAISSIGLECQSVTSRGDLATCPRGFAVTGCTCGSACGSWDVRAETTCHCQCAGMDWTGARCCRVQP

These are yes or no findings as the source states them, for the method shown. In cells and extracts the contact can be indirect. These calls come from enrichment with a bait or labelling near it, and not all partners need be listed. Sequences can lack the tags named with a protein.

This assay concerns the target T1, cMyc-tagged 65-kDa latent heparanase (human, UniProt Q9Y251 36-543).
T1 construct: heparanase, human, 65-kDa latent (unprocessed) form; also called cMyc-latent heparanase; latent cMyc-heparanase; source: medium conditioned by heparanase infected CHO cells, purified (heparin column)
T1 sequence (looked up): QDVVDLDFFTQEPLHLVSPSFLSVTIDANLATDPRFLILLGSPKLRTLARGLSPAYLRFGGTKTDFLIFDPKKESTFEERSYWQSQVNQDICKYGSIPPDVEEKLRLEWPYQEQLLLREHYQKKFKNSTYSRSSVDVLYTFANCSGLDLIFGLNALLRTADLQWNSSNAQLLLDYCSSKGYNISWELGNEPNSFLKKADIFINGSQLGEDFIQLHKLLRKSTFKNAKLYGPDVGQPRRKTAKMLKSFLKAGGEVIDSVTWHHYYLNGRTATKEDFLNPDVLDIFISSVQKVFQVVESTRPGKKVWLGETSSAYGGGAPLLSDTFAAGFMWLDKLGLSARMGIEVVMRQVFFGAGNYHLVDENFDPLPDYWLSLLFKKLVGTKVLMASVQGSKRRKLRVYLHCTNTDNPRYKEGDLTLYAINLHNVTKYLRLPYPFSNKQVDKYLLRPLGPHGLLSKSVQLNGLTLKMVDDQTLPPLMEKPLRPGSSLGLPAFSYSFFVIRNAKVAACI
The assay is described as follows: affinity purification with mass spectrometry; cMyc-latent heparanase covalently immobilised on Affigel-10 Sepharose beads; 500 fold concentrated crude human urinary proteins passed at 4°C; wash phosphate buffer pH 7.4 with 0.65 M NaCl; elution 25 mM citric acid pH 2.2; bands from non-reducing SDS-PAGE analysed by LC-MS/MS; only the target purified.

As for “urinary resistin (RETN) (from UniProt Q9HD89 19-108)”, the binding entry is “binds”.
